Reference: paper PMC7316882
Results are given in words; binding and its absence hold for the method and conditions named. Binding seen in cells or lysates may run through a third protein. Some results given as binding are weak or reduced against the parent protein; the word gives no strength. Tags and fused reporters may be left off the sequences shown.

T1: catalytic-dead dUSP36-D-V5 (dUSP36-D^mut) (Drosophila melanogaster) (UniProt Q9VRP5)
T1 sequence: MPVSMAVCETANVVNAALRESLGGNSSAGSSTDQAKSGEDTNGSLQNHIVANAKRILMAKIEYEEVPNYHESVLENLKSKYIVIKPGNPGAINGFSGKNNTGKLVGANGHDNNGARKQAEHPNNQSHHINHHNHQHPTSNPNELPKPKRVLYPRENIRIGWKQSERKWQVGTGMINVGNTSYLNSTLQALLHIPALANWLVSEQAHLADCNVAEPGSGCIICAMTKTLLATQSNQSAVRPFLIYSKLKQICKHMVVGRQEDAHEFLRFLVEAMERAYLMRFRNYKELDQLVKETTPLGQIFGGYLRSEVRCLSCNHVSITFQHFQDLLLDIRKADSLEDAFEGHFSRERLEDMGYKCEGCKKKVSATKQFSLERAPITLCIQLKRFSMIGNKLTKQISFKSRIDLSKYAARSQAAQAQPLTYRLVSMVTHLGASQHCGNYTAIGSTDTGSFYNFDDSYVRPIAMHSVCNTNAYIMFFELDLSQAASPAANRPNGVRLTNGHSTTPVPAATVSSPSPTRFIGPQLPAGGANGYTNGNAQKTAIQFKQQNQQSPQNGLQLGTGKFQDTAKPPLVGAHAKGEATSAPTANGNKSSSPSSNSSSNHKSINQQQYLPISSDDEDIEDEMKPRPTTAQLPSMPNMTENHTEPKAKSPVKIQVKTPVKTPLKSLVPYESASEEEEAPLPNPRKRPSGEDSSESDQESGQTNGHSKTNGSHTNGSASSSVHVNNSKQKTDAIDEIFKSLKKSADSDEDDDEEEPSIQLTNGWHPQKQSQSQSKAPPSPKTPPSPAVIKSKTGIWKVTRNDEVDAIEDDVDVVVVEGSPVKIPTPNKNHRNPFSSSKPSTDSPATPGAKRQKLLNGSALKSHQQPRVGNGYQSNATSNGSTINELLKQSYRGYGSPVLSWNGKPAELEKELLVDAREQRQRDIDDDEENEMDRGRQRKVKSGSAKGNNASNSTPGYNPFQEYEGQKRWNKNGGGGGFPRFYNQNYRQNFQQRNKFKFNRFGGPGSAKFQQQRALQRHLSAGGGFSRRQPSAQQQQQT


Target: T1, catalytic-dead dUSP36-D-V5 (dUSP36-D^mut) (Drosophila melanogaster)
Experiment: co-IP; Drosophila S2 cells transfected with the tagged proteins for 48 h; lysis and immunoprecipitation in RIPA buffer (50 mM Tris-HCl, 150 mM NaCl, 1 mM EDTA, 1% IGEPAL, 0.5% sodium deoxycholate) with protease inhibitors and PR-619; lysates precleared; antibody (anti-V5 or anti-dMYC) with protein A or G-Sepharose overnight at 4°C; 4 washes; Western blot

Row | binding | Binder
1 | binds | wild-type dUSP36-D-Flag (dUSP36-D^WT) (enzyme, UniProt Q9VRP5 1-1038) MPVSMAVCETANVVNAALRESLGGNSSAGSSTDQAKSGEDTNGSLQNHIVANAKRILMAKIEYEEVPNYHESVLENLKSKYIVIKPGNPGAINGFSGKNNTGKLVGANGHDNNGARKQAEHPNNQSHHINHHNHQHPTSNPNELPKPKRVLYPRENIRIGWKQSERKWQVGTGMINVGNTCYLNSTLQALLHIPALANWLVSEQAHLADCNVAEPGSGCIICAMTKTLLATQSNQSAVRPFLIYSKLKQICKHMVVGRQEDAHEFLRFLVEAMERAYLMRFRNYKELDQLVKETTPLGQIFGGYLRSEVRCLSCNHVSITFQHFQDLLLDIRKADSLEDAFEGHFSRERLEDMGYKCEGCKKKVSATKQFSLERAPITLCIQLKRFSMIGNKLTKQISFKSRIDLSKYAARSQAAQAQPLTYRLVSMVTHLGASQHCGHYTAIGSTDTGSFYNFDDSYVRPIAMHSVCNTNAYIMFFELDLSQAASPAANRPNGVRLTNGHSTTPVPAATVSSPSPTRFIGPQLPAGGANGYTNGNAQKTAIQFKQQNQQSPQNGLQLGTGKFQDTAKPPLVGAHAKGEATSAPTANGNKSSSPSSNSSSNHKSINQQQYLPISSDDEDIEDEMKPRPTTAQLPSMPNMTENHTEPKAKSPVKIQVKTPVKTPLKSLVPYESASEEEEAPLPNPRKRPSGEDSSESDQESGQTNGHSKTNGSHTNGSASSSVHVNNSKQKTDAIDEIFKSLKKSADSDEDDDEEEPSIQLTNGWHPQKQSQSQSKAPPSPKTPPSPAVIKSKTGIWKVTRNDEVDAIEDDVDVVVVEGSPVKIPTPNKNHRNPFSSSKPSTDSPATPGAKRQKLLNGSALKSHQQPRVGNGYQSNATSNGSTINELLKQSYRGYGSPVLSWNGKPAELEKELLVDAREQRQRDIDDDEENEMDRGRQRKVKSGSAKGNNASNSTPGYNPFQEYEGQKRWNKNGGGGGFPRFYNQNYRQNFQQRNKFKFNRFGGPGSAKFQQQRALQRHLSAGGGFSRRQPSAQQQQQT
2 | binds | catalytic-dead dUSP36-D-Flag (dUSP36-D^mut) (enzyme, UniProt Q9VRP5 1-1038) MPVSMAVCETANVVNAALRESLGGNSSAGSSTDQAKSGEDTNGSLQNHIVANAKRILMAKIEYEEVPNYHESVLENLKSKYIVIKPGNPGAINGFSGKNNTGKLVGANGHDNNGARKQAEHPNNQSHHINHHNHQHPTSNPNELPKPKRVLYPRENIRIGWKQSERKWQVGTGMINVGNTSYLNSTLQALLHIPALANWLVSEQAHLADCNVAEPGSGCIICAMTKTLLATQSNQSAVRPFLIYSKLKQICKHMVVGRQEDAHEFLRFLVEAMERAYLMRFRNYKELDQLVKETTPLGQIFGGYLRSEVRCLSCNHVSITFQHFQDLLLDIRKADSLEDAFEGHFSRERLEDMGYKCEGCKKKVSATKQFSLERAPITLCIQLKRFSMIGNKLTKQISFKSRIDLSKYAARSQAAQAQPLTYRLVSMVTHLGASQHCGNYTAIGSTDTGSFYNFDDSYVRPIAMHSVCNTNAYIMFFELDLSQAASPAANRPNGVRLTNGHSTTPVPAATVSSPSPTRFIGPQLPAGGANGYTNGNAQKTAIQFKQQNQQSPQNGLQLGTGKFQDTAKPPLVGAHAKGEATSAPTANGNKSSSPSSNSSSNHKSINQQQYLPISSDDEDIEDEMKPRPTTAQLPSMPNMTENHTEPKAKSPVKIQVKTPVKTPLKSLVPYESASEEEEAPLPNPRKRPSGEDSSESDQESGQTNGHSKTNGSHTNGSASSSVHVNNSKQKTDAIDEIFKSLKKSADSDEDDDEEEPSIQLTNGWHPQKQSQSQSKAPPSPKTPPSPAVIKSKTGIWKVTRNDEVDAIEDDVDVVVVEGSPVKIPTPNKNHRNPFSSSKPSTDSPATPGAKRQKLLNGSALKSHQQPRVGNGYQSNATSNGSTINELLKQSYRGYGSPVLSWNGKPAELEKELLVDAREQRQRDIDDDEENEMDRGRQRKVKSGSAKGNNASNSTPGYNPFQEYEGQKRWNKNGGGGGFPRFYNQNYRQNFQQRNKFKFNRFGGPGSAKFQQQRALQRHLSAGGGFSRRQPSAQQQQQT
